For two molecules, binding results are on record in PMC5751204.

Chains of the proteins cited; added tags and fusions are not shown.
UniProt P35222: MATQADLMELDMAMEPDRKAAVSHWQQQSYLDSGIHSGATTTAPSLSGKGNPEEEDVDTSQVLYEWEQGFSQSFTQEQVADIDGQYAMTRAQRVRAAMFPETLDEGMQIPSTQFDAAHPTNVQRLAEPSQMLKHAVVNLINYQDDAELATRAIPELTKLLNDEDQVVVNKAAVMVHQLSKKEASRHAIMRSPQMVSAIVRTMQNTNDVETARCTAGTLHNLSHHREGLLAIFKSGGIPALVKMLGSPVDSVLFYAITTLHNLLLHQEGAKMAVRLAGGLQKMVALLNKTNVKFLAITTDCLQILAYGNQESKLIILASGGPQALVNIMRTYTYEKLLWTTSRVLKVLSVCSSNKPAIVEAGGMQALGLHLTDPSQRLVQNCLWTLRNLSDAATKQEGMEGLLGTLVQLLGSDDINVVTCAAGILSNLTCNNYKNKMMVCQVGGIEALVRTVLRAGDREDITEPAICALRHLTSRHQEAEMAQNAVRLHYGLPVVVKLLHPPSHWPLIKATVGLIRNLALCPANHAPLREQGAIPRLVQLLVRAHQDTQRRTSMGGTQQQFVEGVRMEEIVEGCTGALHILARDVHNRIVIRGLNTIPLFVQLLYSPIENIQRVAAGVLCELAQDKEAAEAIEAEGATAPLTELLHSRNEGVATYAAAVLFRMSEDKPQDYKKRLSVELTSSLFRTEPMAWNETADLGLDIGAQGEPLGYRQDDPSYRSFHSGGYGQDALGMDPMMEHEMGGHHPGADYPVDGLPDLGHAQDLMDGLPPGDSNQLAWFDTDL

The target of assay [1] is T1, Glycoprotein 90K, myc-tagged (90K-myc) (UniProt Q08380).
T1 sequence: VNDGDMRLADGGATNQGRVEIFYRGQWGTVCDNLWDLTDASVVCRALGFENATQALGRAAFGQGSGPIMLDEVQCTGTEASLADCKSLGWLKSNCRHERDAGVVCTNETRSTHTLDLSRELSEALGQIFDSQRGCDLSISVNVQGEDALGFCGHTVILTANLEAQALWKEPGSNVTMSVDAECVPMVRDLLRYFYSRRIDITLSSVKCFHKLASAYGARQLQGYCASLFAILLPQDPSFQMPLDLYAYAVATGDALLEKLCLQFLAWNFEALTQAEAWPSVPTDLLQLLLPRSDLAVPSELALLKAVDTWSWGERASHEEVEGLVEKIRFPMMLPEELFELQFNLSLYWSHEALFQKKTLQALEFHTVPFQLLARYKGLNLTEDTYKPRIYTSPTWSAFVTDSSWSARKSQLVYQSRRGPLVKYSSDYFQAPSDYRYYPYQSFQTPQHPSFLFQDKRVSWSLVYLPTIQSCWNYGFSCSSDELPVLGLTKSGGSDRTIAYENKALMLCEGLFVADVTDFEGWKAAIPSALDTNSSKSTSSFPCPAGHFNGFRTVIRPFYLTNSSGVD
Nature of the assay: co-IP; HEK293T cells treated with 90K conditioned medium (90K/CM, only mature 90K); lysates immunoprecipitated with anti-myc antibody, 16 h at 4 °C, protein G-Sepharose.

The target in assay [2] is T1, Glycoprotein 90K, myc-tagged (90K-myc). Nature of the assay: co-IP; HEK293T cells transfected with 90K-myc plasmid (also together with p120-catenin shRNA, human-specific or canine-specific control); lysates immunoprecipitated with anti-myc antibody, 16 h at 4 °C, protein G-Sepharose; blots for E-cadherin, p120-catenin, β-catenin.

Results are given in words; binding and its absence hold for the method and conditions named. In cells and extracts the contact can be indirect. Some results given as binding are weak or reduced against the parent protein; the word gives no strength. Where a sequence is shown, tags or fusion partners need not be part of it.

As for β-catenin (from UniProt P35222 1-781), the binding result in assay [1] and in assay [2] was “no binding” throughout.

B1: p120-catenin (protein, UniProt O60716 1-968)
chain: MDDSEVESTASILASVKEQEAQFEKLTRALEEERRHVSAQLERVRVSPQDANPLMANGTLTRRHQNGRFVGDADLERQKFSDLKLNGPQDHSHLLYSTIPRMQEPGQIVETYTEEDPEGAMSVVSVETSDDGTTRRTETTVKKVVKTVTTRTVQPVAMGPDGLPVDASSVSNNYIQTLGRDFRKNGNGGPGPYVGQAGTATLPRNFHYPPDGYSRHYEDGYPGGSDNYGSLSRVTRIEERYRPSMEGYRAPSRQDVYGPQPQVRVGGSSVDLHRFHPEPYGLEDDQRSMGYDDLDYGMMSDYGTARRTGTPSDPRRRLRSYEDMIGEEVPSDQYYWAPLAQHERGSLASLDSLRKGGPPPPNWRQPELPEVIAMLGFRLDAVKSNAAAYLQHLCYRNDKVKTDVRKLKGIPVLVGLLDHPKKEVHLGACGALKNISFGRDQDNKIAIKNCDGVPALVRLLRKARDMDLTEVITGTLWNLSSHDSIKMEIVDHALHALTDEVIIPHSGWEREPNEDCKPRHIEWESVLTNTAGCLRNVSSERSEARRKLRECDGLVDALIFIVQAEIGQKDSDSKLVENCVCLLRNLSYQVHREIPQAERYQEAAPNVANNTGPHAASCFGAKKGKDEWFSRGKKPIEDPANDTVDFPKRTSPARGYELLFQPEVVRIYISLLKESKTPAILEASAGAIQNLCAGRWTYGRYIRSALRQEKALSAIADLLTNEHERVVKAASGALRNLAVDARNKELIGKHAIPNLVKNLPGGQQNSSWNFSEDTVISILNTINEVIAENLEAAKKLRETQGIEKLVLINKSGNRSEKEVRAAALVLQTIWGYKELRKPLEKEGWKKSDFQVNLNNASRSQSSHSYDDSTLPLIDRNQKSDKKPDREEIQMSNMGSNTKSLDNNYSTPNERGDHNRTLDRSGDLGDMEPLKGTTPLMQDEGQESLEEELDVLVLDDEGGQVSYPSMQKI
B1: the binding entry in assay [1] and in assay [2] was “binds” in each case.
